In US20190276542A1 (QILU PUGET SOUND BIOTHERAPEUTICS, published 2019) one finds binding data, which are given here for two molecules.

Sequences of proteins named here, by UniProt entry; tags and fusion partners are left off. A change or cut given only in a name is not applied to a line headed by its entry. Residues count along the entry.
UniProt Q15116: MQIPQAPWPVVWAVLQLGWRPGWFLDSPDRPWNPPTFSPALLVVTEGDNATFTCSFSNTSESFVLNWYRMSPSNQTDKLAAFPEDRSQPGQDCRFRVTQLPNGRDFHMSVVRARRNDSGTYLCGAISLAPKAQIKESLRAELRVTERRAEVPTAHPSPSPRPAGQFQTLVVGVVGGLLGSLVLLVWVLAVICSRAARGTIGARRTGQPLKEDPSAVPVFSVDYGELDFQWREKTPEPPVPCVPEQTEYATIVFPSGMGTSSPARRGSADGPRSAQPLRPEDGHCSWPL
soluble, biotinylated PD1 protein containing only the extracellular region: residues 25-170 of Q15116

Experiment [1] has as its target soluble, biotinylated PD1 protein containing only the extracellular region (human) (UniProt Q15116). Nature of the experiment: … competition: antibody pre-incubated with soluble biotinylated PD1, then GST-tagged hPDL1 added; blocked ligand hPDL1.
Experiment [2] concerns the target human PD1 expressed on a cell surface (human, UniProt Q15116 25-288). Nature of the experiment: flow cytometry on OKT3-activated human T cells. A general note: In flow cytometry, cells or beads pass a laser one at a time.
Experiment [3] addresses extracellular domain of a recombinant cynomolgus (rcyno) PD1 (cynomolgus monkey) (UniProt B0LAJ3). Nature of the experiment: SPR (Biacore 3000). On the technique in general: In SPR one partner is held on a chip, and binding of the other changes the refractive index at the surface.

These are yes or no findings as the source states them, for the method shown. Some entries that bind do so weakly or less than the wild type.

B1: anti-hPD1 antibody #1 (antibody, V domains shown)
VH: QVQLVQSGAEVKKPGASVKVSCKASGYTFTNYWIHWVRQAPGQGLEWMGEIDPYDSYTNYNQKFKGRVTMTVDKSTSTVYMELSSLRSEDTAVYYCARPGFTYGGMDFWGQGTLVTVSS
VL: DIQMTQSPSSLSASVGDRVTITCKSSQSLFNSGNQKNYLAWYQQKPGKVPKLLIYGASTRDSGVPYRFSGSGSGTDFTLTISSLQPEDVATYYCQNDHYYPYTFGGGTKVEIKR
notes: also called Anti-hPD1 #1; Anti-PD1 #1
Regarding B1, the binding entry in experiment [1] and in experiment [2] was “binds” throughout.

B2: anti-hPD1 antibody #7 (antibody, human IgG4, V domains shown)
VH: QVQLVQSGAEVKKPGASVKVSCKASGYTFTNYWIHWVRQAPGQGLEWMGEIDPYDSYTNYNQKFKGRVTMTIDKSTNTVYMELSSLRSEDTAVYYCARPGLTYGGMDFWGQGTLVTVSS
VL: DIVMTQSPDSLAVSLGERATINCRSSQSLFISGNQKNYLAWYQQKPGQPPKLLIYGASTRESGVPDRFSGSGSGTDFTLTISSLQAEDVAVYYCQNNHYYPYTFGGGTKVEIK
notes: also called Anti-hPD1 #7; Anti-PD1 #7
For the molecule B2, the binding entry in experiment [3] is listed as “binds”.
